# Results are given in words; binding and its absence hold for the method and conditions named. In cells and extracts the contact can be indirect. Binding can be weak; no strength is given. Tags and fused reporters may be left off the sequences shown.
# Target: T1, GFP–APUM9 fusion protein (Arabidopsis) (UniProt Q1PFN9)
# T1 sequence: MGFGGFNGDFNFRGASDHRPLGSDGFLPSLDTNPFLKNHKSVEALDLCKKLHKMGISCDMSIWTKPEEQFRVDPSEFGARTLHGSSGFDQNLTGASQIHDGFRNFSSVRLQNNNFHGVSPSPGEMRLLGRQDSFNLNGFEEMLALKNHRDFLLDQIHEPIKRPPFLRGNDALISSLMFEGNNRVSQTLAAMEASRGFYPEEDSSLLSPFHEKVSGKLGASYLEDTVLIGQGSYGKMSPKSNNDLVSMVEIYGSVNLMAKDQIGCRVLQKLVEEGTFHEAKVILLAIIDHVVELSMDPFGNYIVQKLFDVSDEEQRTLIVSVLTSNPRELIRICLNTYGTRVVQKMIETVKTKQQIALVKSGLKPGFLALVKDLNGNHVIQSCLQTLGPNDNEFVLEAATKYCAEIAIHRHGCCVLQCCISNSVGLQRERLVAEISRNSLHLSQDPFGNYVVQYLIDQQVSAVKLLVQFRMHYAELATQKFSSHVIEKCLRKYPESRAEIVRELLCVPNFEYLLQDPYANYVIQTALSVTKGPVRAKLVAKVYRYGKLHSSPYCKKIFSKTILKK
# Experiment: co-IP; GFP co-immunoprecipitation with anti-GFP-Trap_A agarose beads from protein extracts of agroinfiltrated N. benthamiana leaves, 3 d.p.i.; input and eluates analysed by western blot (anti-HA, anti-GFP)
substance,measurement,value
HA-tagged NbDCP2 (N. benthamiana) (enzyme),binding,binds
